# About 6,500 (11%) of roughly 59,000 compounds were called active. This list was built around the results that the source calls inconclusive (neither active nor inactive); the mix of calls is not that of the screen. No stated cut-off is given here; in the data, active means max dye-equivalent concentration above about 10 nM; inconclusive means mostly about 1.1 nM to 9.6 nM; inactive means weaker than that.
# Assay: qHTS Assay for Spectroscopic Profiling in A350 Spectral Region
# Conditions: Compound autofluorescence, 340/450 nm, Alexa 350 dye-equivalents; active compounds read high
row,SMILES,max dye-equivalent concentration
1,C/C(CC/C(C)=N/O)=N/O,inactive
2,COc1cccc(NS(=O)(=O)c2cc(C)ccc2OC)c1,inconclusive: 1.1 nM
3,Cc1ccc(N2CCn3c2nc2c3c(=O)n(CCc3ccccc3)c(=O)n2C)cc1,inactive
4,CN(C)C(=O)c1ccc(-c2nc(NCc3ccccc3)c3ccccc3n2)cc1,inactive
5,COc1ccc(CN(C(=O)c2oc3ccccc3c2C)C2CCS(=O)(=O)C2)cc1 (configuration not stated),inconclusive: 1.1 nM
6,COc1ccc(-c2ccc(-c3noc(-c4ccccc4F)n3)c(OC)n2)cc1,active: 30 nM
7,Cc1ccc2[nH]c3c(c2c1)CCc1cn[nH]c1-3,inconclusive: 1.3 nM
8,NC(=O)CSc1nnc(-c2ccc(O)cc2)n1Cc1ccco1,active: 100 nM
9,Nc1nnc(-c2cc3ccccc3oc2=O)s1,active: 270 nM
10,COc1ccc(-c2nnc(-c3ccc(N(C)C)cc3)o2)cc1,active: 1000 nM
11,Cc1nc(C)c(C(=O)C2=C(O)C(=O)N(CCCn3ccnc3)C2c2ccccc2)s1 (configuration not stated),inconclusive: 1.1 nM
12,COc1cccc2cc(C(=O)Nc3cccc(C)n3)c(=O)oc12,inconclusive: 2.6 nM
13,Cc1ccc(-n2c(SCC(=O)NCC3CCCO3)nc3c(c2=O)SCC3)cc1 (configuration not stated),inconclusive: 1.3 nM
14,COc1ccc(N=C2C(=O)Nc3ccccc32)cc1,inactive
15,Nc1nc(-c2ccccc2)cc(N2CCCCC2)n1,active: 44 nM
16,Nc1nnc(CCC2CCCCC2)s1,inactive
17,Cn1c2ccccc2c2nn(-c3ccccc3)c(=O)cc21,inconclusive: 1.6 nM
18,C[N+](C)(N)Cc1nc(-c2ccc(Cl)cc2)no1,inactive
19,CC(C)CNC(=O)c1c(N)n(/N=C/c2cccnc2)c2nc3ccccc3nc12,inconclusive: 1.9 nM
20,O=c1cc(-c2cccc3ccccc23)[nH][nH]1,inactive
21,O=C(NCc1ccco1)c1cccc(F)c1,inconclusive: 2.9 nM

# Copied from the listing (2 entries):
row,SMILES,max dye-equivalent concentration
16,Nc1nnc(CCC2CCCCC2)s1,inactive
17,Cn1c2ccccc2c2nn(-c3ccccc3)c(=O)cc21,inconclusive: 1.6 nM

# (more compounds)

row,SMILES,max dye-equivalent concentration
1,CCCOc1ccc(C2(C(=O)O)CCCC2)cc1,inconclusive: 2.4 nM
2,c1coc(Cn2c(-c3ccco3)nc3ccccc32)c1,inconclusive: 6.9 nM
3,CCOC(=O)c1[nH]c(CSc2nnc(-c3ccc(OC)cc3)o2)c(C(=O)OCC)c1C,inconclusive: 5.1 nM
4,COc1ccc(/C(O)=C(\C#N)c2nc3ccccc3n2C)cc1OC,inconclusive: 3.5 nM
5,CC1=CCC2C(=O)N(c3nc4ccccc4n3C)C(=O)C2C1 (configuration not stated),inactive
6,CC1=CC(=O)C2=C(C)CC[C@@H]3[C@@H](OC(=O)[C@H]3C)[C@H]12,inactive
7,Nc1nc2c(s1)CC(c1ccccc1)CC2 (configuration not stated),inconclusive: 1.1 nM
8,COc1ccc(C2(O)CCN(CCCCOc3ccccc3)CC2)cc1,inactive
9,N#CC1=C(O)C(c2ccccc2)n2c1nc(=O)c1ccccc12 (configuration not stated),active: 310 nM
10,COc1ccccc1OCc1nc2c3c(-c4ccccc4)c(-c4ccccc4)oc3ncn2n1,inconclusive: 6.5 nM
11,N[C@@H](Cc1cc(I)c(Oc2ccc(O)c(I)c2)c(I)c1)C(=O)O,inactive
12,COc1ccccc1Nc1nc(N)nc(CSc2nccc(C)n2)n1,inactive
13,COCCn1nnnc1C(c1ccccc1)N1CCN(Cc2ccc3c(c2)OCO3)CC1 (configuration not stated),active: 11 nM
14,CC(=O)c1c(C)oc2ccc(NS(=O)(=O)c3ccc(O)c(C(=O)O)c3)cc12,inactive
15,O=C1CCCc2nc(N3CCc4ccccc43)ncc21,active: 71 nM
16,O=C(Nc1ccc2c(c1)OCO2)c1cnn2c1NC(c1ccco1)CC2C(F)(F)F (configuration not stated),inactive
17,N#CC1=C(N)C(C#N)(C#N)[C@H](c2ccncc2)[C@H]2CC3(CC=C12)OCCO3,inconclusive: 9.4 nM
18,Cc1cc(C)n(C(=O)Cc2cn3ccsc3n2)n1,inconclusive: 1.1 nM
19,O=C1c2ccccc2N[C@H](c2cc(Cl)cc(Cl)c2O)N1CCc1ccccn1,inconclusive: 5.8 nM
20,CCNc1ncc2ncc(=O)n(C)c2n1,active: 120 nM
21,Nc1cc(Cl)c(NC2=NCCN2)c(Cl)c1,inactive

# Among those listed so far, three have a Cl atom.
row,SMILES,max dye-equivalent concentration
18,C[N+](C)(N)Cc1nc(-c2ccc(Cl)cc2)no1,inactive
19,O=C1c2ccccc2N[C@H](c2cc(Cl)cc(Cl)c2O)N1CCc1ccccn1,inconclusive: 5.8 nM
21,Nc1cc(Cl)c(NC2=NCCN2)c(Cl)c1,inactive

# (more compounds)

row,SMILES,max dye-equivalent concentration
1,Cc1cc(C)cc(N2C(=O)C3C4C=CC(C4)C3C2=O)c1 (configuration not stated),inactive
2,COc1cccc(CC(C(=O)Nc2cc(C)ccc2C)c2nn[nH]n2)c1OC (configuration not stated),inconclusive: 1.4 nM
3,CCc1c(C)nc(N)n2c(SCC(=O)N3CCN(c4ccccc4OC)CC3)nnc12,inactive
4,CCNS(=O)(=O)c1ccc(NS(=O)(=O)c2cc(C)ccc2C)cc1,inconclusive: 4.4 nM
5,Cc1ccc(S(=O)(=O)N2CCSC2c2ccco2)cc1 (configuration not stated),inconclusive: 1.8 nM
6,O=C(Nc1ccccc1F)NC1CCN(Cc2nnnn2Cc2ccc(F)cc2)CC1,inactive
7,Cc1ccc(-c2cc(C(=O)OCC(=O)Nc3cc(C)on3)c3ccccc3n2)c(C)c1,inconclusive: 2.2 nM
8,O=C1CC(c2ccco2)Cc2nc(NCC3CCCO3)ncc21 (configuration not stated),inconclusive: 4.4 nM
9,CCCCCn1c(=O)[nH]c2cc(C(=O)NCCCN(CC)CC)ccc2c1=O,active: 45 nM
10,O=C(O)c1oc(C(=O)O)c(C(=O)O)c1C(=O)O,inactive
11,CCCCNC(=O)Nc1ccccc1C(=O)NCc1ccco1,inconclusive: 3.5 nM
12,COc1cc(CNc2ncn[nH]2)cc(Br)c1OC,inconclusive: 2.1 nM
13,O=C(Cn1ccsc1=NC(=O)c1ccco1)c1ccccc1,inconclusive: 9.6 nM
14,CCOC(=O)C1CCN(C(C(=O)NC2CCCCC2)c2ccc(OC)cc2)CC1 (configuration not stated),inactive
15,Cn1nnc2c(sc3nc(N4CCOCC4)c4c(c32)CCCC4)c1=O,inconclusive: 1.5 nM
16,Cc1ccc(CCNC(=O)C2CCCN(S(=O)(=O)c3c(C)noc3C)C2)cc1 (configuration not stated),inconclusive: 4.8 nM
17,CCn1ncc(Br)c1C(=O)Nc1nccs1,inconclusive: 2.2 nM
18,O=c1[nH]c(N2CCOCC2)nc2c1CCCC2,inconclusive: 1.8 nM
19,Cc1ccc(NC(=O)CSc2nnc(-c3ccncc3)n2N)cc1C,inconclusive: 5.8 nM
20,N[C@H](CO)C(=O)NCC(=O)O,inactive

# — PubChem BioAssay AID590 (National Center for Advancing Translational Sciences (NCATS), 2007)
